# Test results from the supplement of paper PMC8728848.
# The list shows a part of the results.
# How the values were obtained:
# Experiment in all cases: glycan array binding signal (z-score within array); higher = stronger binding
# Settings in all cases: glycan notation: IUPAC condensed, linker removed
# [1] = target: Gal(b1-4)GlcNAc(b1-3)Gal(b1-3)GlcNAc
# Method in brief: (§1)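 The binding signal is a Z-score computed within each array. Data were drawn from 3228 arrays in the Consortium for Functional Glycomics database, restricted to those with a known protein sequence. Scores were averaged over arrays of the same protein sequence at different concentrations or buffers, and over linkers, and negative values can be taken as non-binding.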
# [2] = target: Gal(b1-4)GlcNAc(b1-3)Gal(b1-4)Glc
# Method in brief: as §1
# [3] = target: Gal(b1-4)GlcNAc(b1-3)Gal(b1-4)GlcNAc
# Method in brief: as §1
# [4] = target: Gal(b1-4)GlcNAc(b1-3)Gal(b1-4)GlcNAc(b1-3)Gal(b1-4)GlcNAc
# Method in brief: as §1
# [5] = target: Gal(b1-4)GlcNAc(b1-3)Gal(b1-4)[Fuc(a1-3)]GlcNAc(b1-3)Gal(b1-4)[Fuc(a1-3)]GlcNAc
# Method in brief: as §1
# [6] = target: Gal(b1-4)GlcNAc(b1-3)GalNAc
# Method in brief: as §1
# [7] = target: Gal(b1-4)GlcNAc(b1-3)[Gal(b1-4)GlcNAc(b1-6)]Gal(b1-4)GlcNAc
# Method in brief: as §1
# [8] = target: Gal(b1-4)GlcNAc(b1-3)[GlcNAc(b1-6)]Gal(b1-4)GlcNAc
# Method in brief: as §1
# [9] = target: Gal(b1-4)GlcNAc(b1-6)Gal(b1-4)GlcNAc
# Method in brief: as §1
# [10] = target: Gal(b1-4)GlcNAc(b1-6)Gal(b1-4)GlcNAc(b1-6)GalNAc
# Method in brief: as §1
# [11] = target: Gal(b1-4)GlcNAc(b1-6)GalNAc
# Method in brief: as §1
# [12] = target: Gal(b1-4)GlcNAc(b1-6)[Gal(b1-3)]GalNAc
# Method in brief: as §1
# [13] = target: Gal3S(b1-3)GalNAc
# Method in brief: as §1
# [14] = target: Gal3S(b1-3)GlcNAc
# Method in brief: as §1
# [15] = target: Gal3S(b1-3)[Fuc(a1-4)]GlcNAc
# Method in brief: as §1
# [16] = target: Gal3S(b1-4)Glc
# Method in brief: as §1
# [17] = target: Gal3S(b1-4)Glc6S
# Method in brief: as §1
# [18] = target: Gal3S(b1-4)GlcNAc
# Method in brief: as §1
# [19] = target: Gal3S(b1-4)GlcNAc6S
# Method in brief: as §1
# [20] = target: Gal3S(b1-4)[Fuc(a1-3)]Glc
# Method in brief: as §1
# [21] = target: Gal3S4S(b1-4)GlcNAc
# Method in brief: as §1
# [22] = target: Gal3S6S(b1-4)GlcNAc
# Method in brief: as §1
# [23] = target: Gal3S6S(b1-4)GlcNAc6S
# Method in brief: as §1
# [24] = target: Gal4S(b1-4)GlcNAc
# Method in brief: as §1
# [25] = target: Gal4S6S(b1-4)GlcNAc
# Method in brief: as §1
# [26] = target: Gal6S(b1-4)Glc
# Method in brief: as §1
# [27] = target: Gal6S(b1-4)Glc6S
# Method in brief: as §1
# [28] = target: Gal6S(b1-4)GlcNAc
# Method in brief: as §1
# [29] = target: Gal6S(b1-4)GlcNAc6S
# Method in brief: as §1
# [30] = target: GalNAc(a1-3)Gal
# Method in brief: as §1
# [31] = target: GalNAc(a1-3)GalNAc
# Method in brief: as §1
# [32] = target: GalNAc(b1-3)Gal
# Method in brief: as §1
# [33] = target: GalNAc(b1-3)Gal(a1-4)Gal(b1-4)GlcNAc
# Method in brief: as §1
# [34] = target: GalNAc(b1-3)Gal(a1-4)Gal(b1-4)GlcNAc(b1-3)Gal(b1-4)Glc
# Method in brief: as §1
# [35] = target: GalNAc(b1-3)GalNAc
# Method in brief: as §1
# [36] = target: GalNAc(b1-4)GlcNAc
# Method in brief: as §1
# [37] = target: GalNAc(b1-4)GlcNAc(b1-2)Man(a1-3)[GalNAc(b1-4)GlcNAc(b1-2)Man(a1-6)]Man(b1-4)GlcNAc(b1-4)GlcNAc
# Method in brief: as §1
# [38] = target: Glc(a1-4)Glc
# Method in brief: as §1
binder,measurement,setting,value
"Adiponectin (Rattus norvegicus), Q8K3R4 (protein) MLLLQALLFLLILPSHEGITATEGPGALVPPPKETCAGWMAGIPGYPGHNGIPGRDGRDGTPGEKGEKGDAGVLGPKGDPGDAGMTGAEGPRGFPGTPGRKGEPGEAAYMYHSAFSVGLETRVTVPNVPIRFTKIFYNQQNHYDGSTGKFHCNIPGLYYFSYHITVYMKDVKVSLFKKDKAVLFTYDQYQEKNVDQASGSMLLHLEVGDQVWLQVYGEGDNNGLYADNVNDSTFTGFLLYHDTN",glycan array binding signal (z-score),[1],1.59
same,glycan array binding signal (z-score),[2],-0.428
same,glycan array binding signal (z-score),[3],-0.229
same,glycan array binding signal (z-score),[4],3.09
same,glycan array binding signal (z-score),[5],-0.654
same,glycan array binding signal (z-score),[6],1.07
same,glycan array binding signal (z-score),[7],0.332
same,glycan array binding signal (z-score),[8],-0.308
same,glycan array binding signal (z-score),[9],-0.757
same,glycan array binding signal (z-score),[10],-0.241
same,glycan array binding signal (z-score),[11],-0.792
same,glycan array binding signal (z-score),[12],-0.861
same,glycan array binding signal (z-score),[13],0.621
same,glycan array binding signal (z-score),[14],-0.814
same,glycan array binding signal (z-score),[15],1.13
same,glycan array binding signal (z-score),[16],-0.489
same,glycan array binding signal (z-score),[17],2.51
same,glycan array binding signal (z-score),[18],-0.78
same,glycan array binding signal (z-score),[19],-0.821
same,glycan array binding signal (z-score),[20],-1.08
same,glycan array binding signal (z-score),[21],0.706
same,glycan array binding signal (z-score),[22],-0.657
same,glycan array binding signal (z-score),[23],-0.626
same,glycan array binding signal (z-score),[24],0.272
same,glycan array binding signal (z-score),[25],1.12
same,glycan array binding signal (z-score),[26],-0.001
same,glycan array binding signal (z-score),[27],-0.053
same,glycan array binding signal (z-score),[28],1.04
same,glycan array binding signal (z-score),[29],-0.915
same,glycan array binding signal (z-score),[30],2.96
same,glycan array binding signal (z-score),[31],-0.694
same,glycan array binding signal (z-score),[32],-1.15
same,glycan array binding signal (z-score),[33],-0.627
same,glycan array binding signal (z-score),[34],-0.299
same,glycan array binding signal (z-score),[35],0.663
same,glycan array binding signal (z-score),[36],-0.696
same,glycan array binding signal (z-score),[37],4.32
same,glycan array binding signal (z-score),[38],-0.624

# Some of the entries so far, tab-delimited.
binder	measurement	setting	value
Adiponectin (Rattus norvegicus), Q8K3R4 (protein) MLLLQALLFLLILPSHEGITATEGPGALVPPPKETCAGWMAGIPGYPGHNGIPGRDGRDGTPGEKGEKGDAGVLGPKGDPGDAGMTGAEGPRGFPGTPGRKGEPGEAAYMYHSAFSVGLETRVTVPNVPIRFTKIFYNQQNHYDGSTGKFHCNIPGLYYFSYHITVYMKDVKVSLFKKDKAVLFTYDQYQEKNVDQASGSMLLHLEVGDQVWLQVYGEGDNNGLYADNVNDSTFTGFLLYHDTN	glycan array binding signal (z-score)	[27]	-0.053
same	glycan array binding signal (z-score)	[28]	1.04
same	glycan array binding signal (z-score)	[29]	-0.915
same	glycan array binding signal (z-score)	[30]	2.96
same	glycan array binding signal (z-score)	[31]	-0.694
same	glycan array binding signal (z-score)	[32]	-1.15
same	glycan array binding signal (z-score)	[33]	-0.627
same	glycan array binding signal (z-score)	[34]	-0.299
same	glycan array binding signal (z-score)	[35]	0.663
same	glycan array binding signal (z-score)	[36]	-0.696
same	glycan array binding signal (z-score)	[37]	4.32
